# In publication PMC8774046:
# Sequences of proteins named here, by UniProt entry; tags and fusion partners are left off.
# UniProt Q9SXA1: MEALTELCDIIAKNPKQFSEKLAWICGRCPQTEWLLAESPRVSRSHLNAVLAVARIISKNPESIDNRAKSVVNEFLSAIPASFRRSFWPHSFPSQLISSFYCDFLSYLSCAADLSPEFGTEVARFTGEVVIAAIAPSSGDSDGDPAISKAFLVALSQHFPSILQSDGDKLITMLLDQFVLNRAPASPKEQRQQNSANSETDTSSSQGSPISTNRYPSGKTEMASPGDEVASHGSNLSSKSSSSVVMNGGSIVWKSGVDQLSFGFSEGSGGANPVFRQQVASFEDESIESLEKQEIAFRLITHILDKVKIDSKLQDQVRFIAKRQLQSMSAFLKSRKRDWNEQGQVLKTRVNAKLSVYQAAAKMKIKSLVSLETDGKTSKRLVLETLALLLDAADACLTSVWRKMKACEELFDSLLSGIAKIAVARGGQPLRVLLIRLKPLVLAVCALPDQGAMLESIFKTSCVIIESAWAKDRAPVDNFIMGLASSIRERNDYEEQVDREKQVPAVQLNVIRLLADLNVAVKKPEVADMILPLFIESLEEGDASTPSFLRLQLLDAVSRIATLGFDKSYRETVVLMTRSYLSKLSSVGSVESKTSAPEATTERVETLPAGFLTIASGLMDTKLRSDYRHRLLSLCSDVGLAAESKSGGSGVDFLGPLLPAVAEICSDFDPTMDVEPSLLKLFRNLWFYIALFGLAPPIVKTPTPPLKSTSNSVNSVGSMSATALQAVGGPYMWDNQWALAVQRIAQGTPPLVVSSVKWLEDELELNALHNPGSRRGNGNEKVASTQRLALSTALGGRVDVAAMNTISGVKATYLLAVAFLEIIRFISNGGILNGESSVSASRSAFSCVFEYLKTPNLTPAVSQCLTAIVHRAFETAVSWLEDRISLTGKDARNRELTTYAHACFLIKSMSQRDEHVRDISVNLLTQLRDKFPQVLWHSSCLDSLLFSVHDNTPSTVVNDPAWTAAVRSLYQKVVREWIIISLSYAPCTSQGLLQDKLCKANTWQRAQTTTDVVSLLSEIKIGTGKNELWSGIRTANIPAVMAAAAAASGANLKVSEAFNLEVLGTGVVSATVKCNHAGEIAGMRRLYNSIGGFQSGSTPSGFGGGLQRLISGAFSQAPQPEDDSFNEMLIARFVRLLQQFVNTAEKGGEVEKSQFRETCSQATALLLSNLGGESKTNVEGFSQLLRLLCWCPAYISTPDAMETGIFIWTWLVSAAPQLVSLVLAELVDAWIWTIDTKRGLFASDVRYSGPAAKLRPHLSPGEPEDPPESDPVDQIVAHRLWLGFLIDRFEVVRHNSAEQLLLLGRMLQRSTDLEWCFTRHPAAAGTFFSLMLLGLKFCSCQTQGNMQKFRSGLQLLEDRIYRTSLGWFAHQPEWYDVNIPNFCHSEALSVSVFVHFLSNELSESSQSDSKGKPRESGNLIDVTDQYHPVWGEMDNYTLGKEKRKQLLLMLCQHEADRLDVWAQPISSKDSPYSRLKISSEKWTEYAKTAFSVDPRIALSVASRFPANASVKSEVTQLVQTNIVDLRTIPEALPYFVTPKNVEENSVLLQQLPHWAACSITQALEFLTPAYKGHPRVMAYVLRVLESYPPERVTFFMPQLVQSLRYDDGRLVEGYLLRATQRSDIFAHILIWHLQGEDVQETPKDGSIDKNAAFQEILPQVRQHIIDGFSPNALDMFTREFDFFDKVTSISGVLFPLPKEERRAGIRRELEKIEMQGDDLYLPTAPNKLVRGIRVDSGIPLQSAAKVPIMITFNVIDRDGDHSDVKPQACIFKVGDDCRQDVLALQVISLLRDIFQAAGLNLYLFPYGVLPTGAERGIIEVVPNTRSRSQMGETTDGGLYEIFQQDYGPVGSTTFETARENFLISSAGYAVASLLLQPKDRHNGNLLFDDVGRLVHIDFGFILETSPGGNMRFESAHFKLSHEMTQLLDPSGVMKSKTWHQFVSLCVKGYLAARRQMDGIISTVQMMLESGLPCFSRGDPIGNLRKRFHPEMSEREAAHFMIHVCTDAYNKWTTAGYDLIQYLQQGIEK
# Read-outs that look alike come from different tables or passages of the source. Results are given in words; binding and its absence hold for the method and conditions named. In cells and extracts the contact can be indirect. Some entries that bind do so weakly or less than the wild type.
# T1: Lti6b–mCITRINE (UniProt Q9ZNS6)
# T1 sequence: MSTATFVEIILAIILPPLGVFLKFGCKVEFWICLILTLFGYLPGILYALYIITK
# T2: NPGR2–mCITRINE (Arabidopsis thaliana) (UniProt Q66GN3)
# T2 sequence: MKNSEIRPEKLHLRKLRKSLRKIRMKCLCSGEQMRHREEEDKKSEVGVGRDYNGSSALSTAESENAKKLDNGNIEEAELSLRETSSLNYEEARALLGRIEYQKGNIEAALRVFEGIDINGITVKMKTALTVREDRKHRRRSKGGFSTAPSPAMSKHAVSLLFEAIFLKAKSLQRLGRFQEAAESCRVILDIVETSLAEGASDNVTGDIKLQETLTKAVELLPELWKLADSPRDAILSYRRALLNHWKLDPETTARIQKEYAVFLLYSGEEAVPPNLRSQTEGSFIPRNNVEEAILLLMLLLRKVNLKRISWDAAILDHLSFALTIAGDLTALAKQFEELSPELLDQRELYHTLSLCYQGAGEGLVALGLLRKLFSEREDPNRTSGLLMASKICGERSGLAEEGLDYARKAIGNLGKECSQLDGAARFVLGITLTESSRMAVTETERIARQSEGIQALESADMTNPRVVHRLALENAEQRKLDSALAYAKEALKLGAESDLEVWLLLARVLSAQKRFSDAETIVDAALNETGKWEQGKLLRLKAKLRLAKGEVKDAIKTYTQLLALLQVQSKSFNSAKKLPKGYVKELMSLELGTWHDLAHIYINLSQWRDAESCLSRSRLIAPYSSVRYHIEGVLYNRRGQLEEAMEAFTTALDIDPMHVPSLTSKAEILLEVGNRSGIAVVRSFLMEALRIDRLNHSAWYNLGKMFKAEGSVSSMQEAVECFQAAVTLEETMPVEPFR
# Assays:
# Assay in all cases: co-IP; leaf tissue of Arabidopsis transgenic lines; proteins fused to mCITRINE immunoprecipitated with Miltenyi µMacs anti-GFP; immunoblot with anti-PI4Kα1, anti-NPGR2 and anti-GFP
# Lti6b–mCITRINE [1] = target: T1, Lti6b–mCITRINE
# [2] = target: T2, NPGR2–mCITRINE (Arabidopsis thaliana)
# Lti6b–mCITRINE [3] = target: T1, Lti6b–mCITRINE; remark: listed apart in the source
binding (Lti6b–mCITRINE [1]),binding [2],binding (Lti6b–mCITRINE [3]),Molecule
no binding,binds,–,"PI4Kα1 (endogenous, native) (from UniProt Q9SXA1 1-2028) (enzyme)"
–,–,no binding,"NPGR2 (endogenous) (protein, UniProt Q66GN3 1-739) MKNSEIRPEKLHLRKLRKSLRKIRMKCLCSGEQMRHREEEDKKSEVGVGRDYNGSSALSTAESENAKKLDNGNIEEAELSLRETSSLNYEEARALLGRIEYQKGNIEAALRVFEGIDINGITVKMKTALTVREDRKHRRRSKGGFSTAPSPAMSKHAVSLLFEAIFLKAKSLQRLGRFQEAAESCRVILDIVETSLAEGASDNVTGDIKLQETLTKAVELLPELWKLADSPRDAILSYRRALLNHWKLDPETTARIQKEYAVFLLYSGEEAVPPNLRSQTEGSFIPRNNVEEAILLLMLLLRKVNLKRISWDAAILDHLSFALTIAGDLTALAKQFEELSPELLDQRELYHTLSLCYQGAGEGLVALGLLRKLFSEREDPNRTSGLLMASKICGERSGLAEEGLDYARKAIGNLGKECSQLDGAARFVLGITLTESSRMAVTETERIARQSEGIQALESADMTNPRVVHRLALENAEQRKLDSALAYAKEALKLGAESDLEVWLLLARVLSAQKRFSDAETIVDAALNETGKWEQGKLLRLKAKLRLAKGEVKDAIKTYTQLLALLQVQSKSFNSAKKLPKGYVKELMSLELGTWHDLAHIYINLSQWRDAESCLSRSRLIAPYSSVRYHIEGVLYNRRGQLEEAMEAFTTALDIDPMHVPSLTSKAEILLEVGNRSGIAVVRSFLMEALRIDRLNHSAWYNLGKMFKAEGSVSSMQEAVECFQAAVTLEETMPVEPFR"
